Measured values as given in article PMC9167300.

By UniProt entry, the sequences of proteins in these tests, tags left out. Where a name states a change or a piece, a line headed by the entry shows the natural chain unless it says otherwise. Residues count along the entry.
UniProt Q8R455, residues 980-1104: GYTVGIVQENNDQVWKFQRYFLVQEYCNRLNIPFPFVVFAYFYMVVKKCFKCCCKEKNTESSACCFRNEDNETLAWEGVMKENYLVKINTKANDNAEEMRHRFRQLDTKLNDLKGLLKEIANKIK
UniProt P63104: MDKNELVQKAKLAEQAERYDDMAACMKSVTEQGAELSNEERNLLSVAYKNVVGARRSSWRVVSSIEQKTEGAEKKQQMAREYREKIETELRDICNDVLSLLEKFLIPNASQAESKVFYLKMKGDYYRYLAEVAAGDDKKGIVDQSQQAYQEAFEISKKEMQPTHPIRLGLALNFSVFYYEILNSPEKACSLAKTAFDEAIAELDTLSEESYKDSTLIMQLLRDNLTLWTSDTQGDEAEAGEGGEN
UniProt P51451: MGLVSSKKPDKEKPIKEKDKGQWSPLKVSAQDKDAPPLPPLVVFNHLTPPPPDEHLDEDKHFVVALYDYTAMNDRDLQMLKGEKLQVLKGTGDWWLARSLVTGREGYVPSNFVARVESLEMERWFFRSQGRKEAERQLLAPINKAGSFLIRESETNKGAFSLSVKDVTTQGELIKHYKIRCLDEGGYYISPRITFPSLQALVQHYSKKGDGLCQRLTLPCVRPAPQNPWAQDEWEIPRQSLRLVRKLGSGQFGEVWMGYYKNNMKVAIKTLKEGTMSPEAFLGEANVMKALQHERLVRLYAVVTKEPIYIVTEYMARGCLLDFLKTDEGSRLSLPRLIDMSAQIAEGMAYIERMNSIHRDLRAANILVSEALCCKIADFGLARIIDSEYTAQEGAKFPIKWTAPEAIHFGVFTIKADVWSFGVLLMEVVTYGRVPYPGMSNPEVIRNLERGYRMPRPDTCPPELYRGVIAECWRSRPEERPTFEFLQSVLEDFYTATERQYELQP
UniProt P06239: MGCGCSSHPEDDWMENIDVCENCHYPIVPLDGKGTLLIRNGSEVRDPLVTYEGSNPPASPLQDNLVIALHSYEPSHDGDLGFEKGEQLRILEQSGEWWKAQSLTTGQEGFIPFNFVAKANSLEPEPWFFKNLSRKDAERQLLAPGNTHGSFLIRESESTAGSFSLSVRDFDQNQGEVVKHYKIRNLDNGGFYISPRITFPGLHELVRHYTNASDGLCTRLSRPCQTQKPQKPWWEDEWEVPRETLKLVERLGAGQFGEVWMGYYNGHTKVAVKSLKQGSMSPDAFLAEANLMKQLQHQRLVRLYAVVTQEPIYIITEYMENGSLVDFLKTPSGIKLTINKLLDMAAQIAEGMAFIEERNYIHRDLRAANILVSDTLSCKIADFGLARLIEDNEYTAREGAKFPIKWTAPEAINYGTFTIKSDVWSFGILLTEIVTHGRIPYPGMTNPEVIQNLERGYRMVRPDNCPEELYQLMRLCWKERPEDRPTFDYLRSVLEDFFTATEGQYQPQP

The substances below were run against GST-tagged C-terminus of TRPM8 (GST-M8C) (rat) (UniProt Q8R455) (assay: affinity purification with mass spectrometry; GST pull-down with the C-terminus of TRPM8 (M8C, 980-1104) combined with MS of ~60 kD and ~30 kD bands; the text also says Co-IP and MS assays in MCF7 cells; only the target purified).

binding, binds:
14-3-3ζ, endogenous (from UniProt P63104 1-245)
BLK, endogenous in MCF7 cells (from UniProt P51451 1-505) (enzyme)
LCK, endogenous (from UniProt P06239 1-509) (enzyme)

These are yes or no findings as the source states them, for the method shown. Binding seen in cells or lysates may run through a third protein. These calls come from enrichment with a bait or labelling near it, and not all partners need be listed.
